No constants are given. Whether binding was seen depends on the method and setting. In cells and extracts the contact can be indirect. These calls come from enrichment with a bait or labelling near it, and not all partners need be listed.
Target: G3BP stress granule assembly factor 1 (G3BP1), endogenous (human (endogenous in SK-N-SH and SH-SY5Y)) (UniProt Q13283)
Assay: affinity purification with mass spectrometry; Co-IP from NB cells (bait TSPYL5, or bait G3BP1), SDS-PAGE bands digested with trypsin, LC-MS/MS (Orbitrap-Fusion)

By UniProt entry, the sequences of proteins in these tests, tags left out.
UniProt Q13283: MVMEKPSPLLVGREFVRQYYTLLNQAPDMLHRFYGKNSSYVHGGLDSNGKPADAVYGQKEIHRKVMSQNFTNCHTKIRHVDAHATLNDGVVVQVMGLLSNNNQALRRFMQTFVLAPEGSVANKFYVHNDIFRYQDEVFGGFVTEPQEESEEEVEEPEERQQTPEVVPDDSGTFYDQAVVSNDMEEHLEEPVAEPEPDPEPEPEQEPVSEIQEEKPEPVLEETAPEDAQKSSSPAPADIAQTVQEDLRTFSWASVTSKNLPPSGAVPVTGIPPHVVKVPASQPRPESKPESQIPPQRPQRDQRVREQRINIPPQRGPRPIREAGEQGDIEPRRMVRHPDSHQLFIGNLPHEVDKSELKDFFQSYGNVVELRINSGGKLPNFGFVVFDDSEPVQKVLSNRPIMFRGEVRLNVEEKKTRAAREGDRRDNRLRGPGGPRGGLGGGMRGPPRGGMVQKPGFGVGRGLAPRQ
UniProt P49792: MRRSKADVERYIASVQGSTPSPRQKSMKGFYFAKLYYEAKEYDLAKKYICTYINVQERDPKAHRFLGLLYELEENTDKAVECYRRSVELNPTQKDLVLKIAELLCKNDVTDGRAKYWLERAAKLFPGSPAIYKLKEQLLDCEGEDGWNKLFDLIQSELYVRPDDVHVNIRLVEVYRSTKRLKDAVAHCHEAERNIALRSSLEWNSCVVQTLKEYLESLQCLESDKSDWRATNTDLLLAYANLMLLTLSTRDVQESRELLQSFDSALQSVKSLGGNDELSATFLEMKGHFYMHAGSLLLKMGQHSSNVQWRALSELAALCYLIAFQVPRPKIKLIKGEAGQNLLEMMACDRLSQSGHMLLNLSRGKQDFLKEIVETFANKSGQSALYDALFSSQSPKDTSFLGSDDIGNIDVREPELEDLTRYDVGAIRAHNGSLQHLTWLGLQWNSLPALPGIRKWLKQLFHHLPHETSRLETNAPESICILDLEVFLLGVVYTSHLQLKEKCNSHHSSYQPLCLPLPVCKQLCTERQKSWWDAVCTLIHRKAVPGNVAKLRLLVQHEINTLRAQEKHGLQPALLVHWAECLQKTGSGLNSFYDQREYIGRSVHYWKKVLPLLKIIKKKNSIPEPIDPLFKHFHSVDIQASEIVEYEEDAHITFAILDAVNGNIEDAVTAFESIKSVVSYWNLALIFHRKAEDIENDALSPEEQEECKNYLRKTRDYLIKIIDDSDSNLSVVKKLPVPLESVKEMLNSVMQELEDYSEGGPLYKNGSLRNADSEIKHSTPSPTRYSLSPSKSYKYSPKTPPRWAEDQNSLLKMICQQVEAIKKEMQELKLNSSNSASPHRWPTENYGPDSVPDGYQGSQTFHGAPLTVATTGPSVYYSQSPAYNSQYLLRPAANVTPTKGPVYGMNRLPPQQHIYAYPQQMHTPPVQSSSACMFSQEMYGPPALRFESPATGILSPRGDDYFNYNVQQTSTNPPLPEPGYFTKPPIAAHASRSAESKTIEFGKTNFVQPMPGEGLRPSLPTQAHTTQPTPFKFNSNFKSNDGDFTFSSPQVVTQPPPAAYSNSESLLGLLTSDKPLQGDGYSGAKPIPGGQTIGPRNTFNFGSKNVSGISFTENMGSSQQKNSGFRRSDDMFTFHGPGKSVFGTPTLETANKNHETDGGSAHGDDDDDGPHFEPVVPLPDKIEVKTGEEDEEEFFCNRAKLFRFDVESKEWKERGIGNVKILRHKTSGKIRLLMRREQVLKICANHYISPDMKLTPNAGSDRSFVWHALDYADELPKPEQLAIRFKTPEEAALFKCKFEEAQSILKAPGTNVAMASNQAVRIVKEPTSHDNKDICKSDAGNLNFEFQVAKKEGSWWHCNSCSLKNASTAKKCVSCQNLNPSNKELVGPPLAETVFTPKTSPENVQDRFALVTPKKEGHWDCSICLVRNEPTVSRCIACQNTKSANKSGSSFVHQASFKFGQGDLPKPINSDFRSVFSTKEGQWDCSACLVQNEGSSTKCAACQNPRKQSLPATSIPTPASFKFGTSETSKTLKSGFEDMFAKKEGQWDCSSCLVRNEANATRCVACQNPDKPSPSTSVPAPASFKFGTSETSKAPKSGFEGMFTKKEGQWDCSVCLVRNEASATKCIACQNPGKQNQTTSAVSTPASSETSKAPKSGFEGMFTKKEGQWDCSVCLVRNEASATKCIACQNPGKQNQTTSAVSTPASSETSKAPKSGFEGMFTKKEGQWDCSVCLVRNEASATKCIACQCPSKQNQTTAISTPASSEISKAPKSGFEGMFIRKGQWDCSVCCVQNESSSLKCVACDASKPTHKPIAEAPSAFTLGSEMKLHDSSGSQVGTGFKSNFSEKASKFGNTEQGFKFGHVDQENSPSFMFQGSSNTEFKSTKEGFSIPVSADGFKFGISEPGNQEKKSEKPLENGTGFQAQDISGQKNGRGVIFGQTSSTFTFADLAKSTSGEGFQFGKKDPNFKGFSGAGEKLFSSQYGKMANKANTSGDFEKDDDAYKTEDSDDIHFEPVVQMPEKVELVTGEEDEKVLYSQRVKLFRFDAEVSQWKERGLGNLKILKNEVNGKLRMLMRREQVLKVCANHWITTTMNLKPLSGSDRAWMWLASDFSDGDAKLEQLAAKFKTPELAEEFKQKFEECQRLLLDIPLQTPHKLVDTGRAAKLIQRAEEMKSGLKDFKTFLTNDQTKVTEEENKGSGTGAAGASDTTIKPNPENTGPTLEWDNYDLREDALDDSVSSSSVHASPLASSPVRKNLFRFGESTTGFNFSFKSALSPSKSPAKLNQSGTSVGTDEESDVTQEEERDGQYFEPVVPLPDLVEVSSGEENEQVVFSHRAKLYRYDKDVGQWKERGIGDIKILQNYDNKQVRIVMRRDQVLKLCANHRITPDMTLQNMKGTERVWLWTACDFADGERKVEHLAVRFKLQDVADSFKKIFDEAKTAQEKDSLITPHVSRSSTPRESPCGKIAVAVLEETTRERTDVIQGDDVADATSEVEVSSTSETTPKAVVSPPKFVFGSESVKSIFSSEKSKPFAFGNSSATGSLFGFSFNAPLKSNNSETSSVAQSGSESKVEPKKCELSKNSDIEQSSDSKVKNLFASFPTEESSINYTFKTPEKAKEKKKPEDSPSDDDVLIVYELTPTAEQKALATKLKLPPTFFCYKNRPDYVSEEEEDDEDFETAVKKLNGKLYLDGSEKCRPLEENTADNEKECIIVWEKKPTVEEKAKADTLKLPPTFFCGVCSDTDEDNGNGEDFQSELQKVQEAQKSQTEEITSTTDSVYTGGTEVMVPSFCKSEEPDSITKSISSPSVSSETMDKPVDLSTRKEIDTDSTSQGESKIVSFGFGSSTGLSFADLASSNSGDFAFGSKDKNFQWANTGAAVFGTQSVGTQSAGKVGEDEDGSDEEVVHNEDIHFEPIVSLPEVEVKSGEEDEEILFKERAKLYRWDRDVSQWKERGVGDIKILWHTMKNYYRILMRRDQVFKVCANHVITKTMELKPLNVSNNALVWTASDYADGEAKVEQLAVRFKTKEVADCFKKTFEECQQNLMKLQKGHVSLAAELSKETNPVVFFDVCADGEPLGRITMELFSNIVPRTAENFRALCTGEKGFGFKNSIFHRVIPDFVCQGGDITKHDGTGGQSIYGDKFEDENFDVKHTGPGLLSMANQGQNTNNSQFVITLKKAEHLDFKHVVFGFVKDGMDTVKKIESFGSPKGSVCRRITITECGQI

RAN binding protein 2 (RanBP2), endogenous (from UniProt P49792 1-3224)
binding: binds
